# Some results were stated once for a whole list of compounds, not compound by compound.
# By UniProt entry, the sequences of proteins in these tests, tags left out.
# UniProt O43353, whole entry: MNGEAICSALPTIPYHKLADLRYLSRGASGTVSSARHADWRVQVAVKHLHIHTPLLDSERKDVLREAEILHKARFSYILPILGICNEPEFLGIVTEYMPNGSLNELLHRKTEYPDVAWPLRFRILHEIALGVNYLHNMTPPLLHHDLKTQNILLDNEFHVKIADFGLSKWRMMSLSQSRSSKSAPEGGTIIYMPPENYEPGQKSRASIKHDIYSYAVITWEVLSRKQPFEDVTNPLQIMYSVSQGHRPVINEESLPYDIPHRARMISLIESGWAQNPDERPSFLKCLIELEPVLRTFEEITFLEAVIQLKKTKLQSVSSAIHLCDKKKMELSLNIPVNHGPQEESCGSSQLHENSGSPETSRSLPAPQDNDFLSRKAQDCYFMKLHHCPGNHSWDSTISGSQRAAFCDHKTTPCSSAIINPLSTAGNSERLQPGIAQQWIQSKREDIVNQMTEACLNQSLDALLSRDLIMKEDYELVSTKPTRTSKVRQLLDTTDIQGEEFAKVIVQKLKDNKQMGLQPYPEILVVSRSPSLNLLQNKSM
# Target: T1, RIPK2 (Homo sapiens, UniProt O43353)
# T1 construct: Full length FLAG His tagged RIPK2 was purified from a Baculovirus expression system; FLAG (N); 6His (N); made in house; host or cells: Spodoptera frugiperda (Sf9) insect cells, baculovirus
# Experiment: Fluorescent polarization based binding assay at the ATP binding pocket of RIPK2
# Conditions: FP competition with fluorescently labeled ATP competitive ligand (5 nM); full length FLAG His tagged RIPK2; mean of a minimum of 2 experiments
row,SMILES,mean pIC50
1,"COc1cc(Nc2nccc(N(C)c3n[nH]c4c(F)cccc34)n2)cc(S(C)(=O)=O)c1 [Example 113, N4-(7-fluoro-1H-indazol-3-yl)-N4-methyl-N2-[3-(methyloxy)-5-(methylsulfonyl)phenyl]-2,4-pyrimidinediamine]",greater than or equal to 6.0
2,"COc1cc(Nc2nccc(N(C)c3n[nH]c4c(F)cccc34)n2)cc(OC)c1OC [Example 114, N4-(7-fluoro-1H-indazol-3-yl)-N4-methyl-N2-[3,4,5-tris(methyloxy)phenyl]-2,4-pyrimidinediamine]",greater than or equal to 6.0
3,"COc1cc(Nc2nccc(N(C)c3n[nH]c4cc(F)c(F)cc34)n2)cc(OC)c1OC [Example 115, N4-(5,6-difluoro-1H-indazol-3-yl)-N4-methyl-N2-[3,4,5-tris(methyloxy)phenyl]-2,4-pyrimidinediamine]",greater than or equal to 6.0
4,"COc1cc(Nc2nccc(N(C)c3n[nH]c4cc(F)c(F)cc34)n2)cc(S(C)(=O)=O)c1 [Example 116, N4-(5,6-difluoro-1H-indazol-3-yl)-N4-methyl-N2-[3-(methyloxy)-5-(methylsulfonyl)phenyl]-2,4-pyrimidinediamine]",greater than or equal to 6.0
5,"Cc1ccc(Nc2nccc(N(C)c3n[nH]c4cc(F)c(F)cc34)n2)cc1S(C)(=O)=O [Example 117, N4-(5,6-difluoro-1H-indazol-3-yl)-N4-methyl-N2-[4-methyl-3-(methylsulfonyl)phenyl]-2,4-pyrimidinediamine]",greater than or equal to 6.0
6,"Cc1cc(Nc2nccc(N(C)c3n[nH]c4cc(F)c(F)cc34)n2)cc(S(C)(=O)=O)c1 [Example 118, N4-(5,6-difluoro-1H-indazol-3-yl)-N4-methyl-N2-[3-methyl-5-(methylsulfonyl)phenyl]-2,4-pyrimidinediamine]",greater than or equal to 6.0
7,"COc1cc(Nc2nccc(N(C)c3n[nH]c4c(F)c(F)ccc34)n2)cc(S(C)(=O)=O)c1 [Example 119, N4-(6,7-difluoro-1H-indazol-3-yl)-N4-methyl-N2-[3-(methyloxy)-5-(methylsulfonyl)phenyl]-2,4-pyrimidinediamine]",greater than or equal to 6.0
8,"Cc1cc(Nc2nccc(Nc3n[nH]c4ccccc34)n2)cc(S(C)(=O)=O)c1 [Example 120, N4-(1H-INDAZOL- 3-YL)-N2-(3- METHYL-5- (METHYL- SULFONYL) PHENYL) PYRIMIDINE-2,4- DIAMINE]",greater than or equal to 6.0
9,"Cc1ccc(Nc2nccc(Nc3n[nH]c4ccccc34)n2)cc1S(C)(=O)=O [Example 121, N4-(1H-INDAZOL- 3-YL)-N2-(4- METHYL-3- (METHYL- SULFONYL) PHENYL) PYRIMIDINE-2,4- DIAMINE]",greater than or equal to 6.0
10,"Cc1cc(Nc2nccc(Nc3n[nH]c4c(F)cccc34)n2)cc(S(C)(=O)=O)c1 [Example 122, N4-(7-FLUORO- 1H-INDAZOL-3- YL)-N2-(3- METHYL-5- (METHYL- SULFONYL) PHENYL) PYRIMIDINE-2,4- DIAMINE]",greater than or equal to 6.0
11,"Cc1ccc(Nc2nccc(N(C)c3n[nH]c4cccc(F)c34)n2)cc1S(C)(=O)=O [Example 123, N4-(4-FLUORO- 1H-INDAZOL-3- YL)-N4-METHYL- N2-(4-METHYL-3- (METHYL- SULFONYL) PHENYL) PYRIMIDINE-2,4- DIAMINE]",greater than or equal to 6.0
12,"Cc1cc(Nc2nccc(Nc3n[nH]c4c(F)c(F)ccc34)n2)cc(S(C)(=O)=O)c1 [Example 124, N4-(6,7- DIFLUORO-1H- INDAZOL-3-YL)- N2-(3-METHYL-5- (METHYL- SULFONYL) PHENYL) PYRIMIDINE-2,4- DIAMINE]",greater than or equal to 6.0
13,"Cc1cc(Nc2nccc(N(C)c3n[nH]c4cccc(F)c34)n2)cc(S(C)(=O)=O)c1 [Example 125, N4-(4-FLUORO- 1H-INDAZOL-3- YL)-N4-METHYL- N2-(3-METHYL-5- (METHYL- SULFONYL) PHENYL) PYRIMIDINE-2,4- DIAMINE]",greater than or equal to 6.0
14,"Cc1cc(Nc2nccc(N(C)c3n[nH]c4cc(C)c(F)cc34)n2)cc(S(C)(=O)=O)c1 [Example 126, N4-(5-fluoro-6-methyl-1H-indazol-3-yl)-N4-methyl-N2-[3-methyl-5-(methylsulfonyl)phenyl]-2,4-pyrimidinediamine]",greater than or equal to 6.0
15,"Cc1cc(Nc2nccc(N(C)c3n[nH]c4c(F)c(C)ccc34)n2)cc(S(C)(=O)=O)c1 [Example 127, N4-(7-fluoro-6-methyl-1H-indazol-3-yl)-N4-methyl-N2-[3-methyl-5-(methylsulfonyl)phenyl]-2,4-pyrimidinediamine]",greater than or equal to 6.0
16,"Cc1cc(Nc2nccc(Nc3n[nH]c4cc(F)c(F)cc34)n2)cc(S(C)(=O)=O)c1 [Example 128, N4-(5,6-difluoro-1H-indazol-3-yl)-N2-[3-methyl-5-(methylsulfonyl)phenyl]-2,4-pyrimidinediamine]",greater than or equal to 6.0

row,SMILES,mean pIC50
1,"COc1cc(Nc2nccc(Nc3n[nH]c4cc(F)c(F)cc34)n2)cc(S(C)(=O)=O)c1 [Example 129, N4-(5,6-difluoro-1H-indazol-3-yl)-N2-[3-(methyloxy)-5-(methylsulfonyl)phenyl]-2,4-pyrimidinediamine]",greater than or equal to 6.0
2,"COc1cc(Nc2nccc(Nc3n[nH]c4cc(F)c(F)cc34)n2)cc(OC)c1OC [Example 130, N4-(5,6-difluoro-1H-indazol-3-yl)-N2-[3,4,5-tris(methyloxy)phenyl]-2,4-pyrimidinediamine]",greater than or equal to 6.0
3,"Cc1cc(Nc2nccc(N(C)c3n[nH]c4cc(F)c(C)cc34)n2)cc(S(C)(=O)=O)c1.O=C(O)C(F)(F)F [Example 131, N4-(6-fluoro-5-methyl-1H-indazol-3-yl)-N4-methyl-N2-[3-methyl-5-(methylsulfonyl)phenyl]-2,4-pyrimidinediamine trifluoroacetate]",greater than or equal to 6.0
4,"NS(=O)(=O)c1cc(Nc2nccc(Nc3n[nH]c4ccc(F)cc34)n2)ccc1Cl [Example 132, 2-chloro-5-({4-[(5-fluoro-1H-indazol-3-yl)amino]-2-pyrimidinyl}amino) benzene sulfonamide]",greater than or equal to 6.0
5,"Cc1cc(Nc2nccc(N(C)c3n[nH]c4cc(C)c(F)cc34)n2)cc(S(C)(=O)=O)c1.Cl [Example 133, N4-(5-fluoro-6-methyl-1H-indazol-3-yl)-N4-methyl-N2-[3-methyl-5-(methylsulfonyl)phenyl]-2,4-pyrimidinediamine hydrochloride]",greater than or equal to 6.0
6,"Cc1cc(Nc2nccc(N(C)c3n[nH]c4c(F)cccc34)n2)cc(S(N)(=O)=O)c1 [Example 134, 3-({4-[(7-fluoro-1H-indazol-3-yl)(methyl)amino]-2-pyrimidinyl}amino)-5-methylbenzene sulfonamide]",greater than or equal to 6.0
7,"CN(c1ccnc(Nc2cc(N3CCCC3)cc(S(C)(=O)=O)c2)n1)c1n[nH]c2c(F)cccc12 [Example 135, N4-(7-fluoro-1H-indazol-3-yl)-N4-methyl-N2-(3-(methylsulfonyl)-5-(pyrrolidin-1-yl)phenyl) pyrimidine-2,4-diamine]",greater than or equal to 6.0
8,"Cc1cc(Nc2nccc(N(C)c3n[nH]c4c(F)c(F)ccc34)n2)cc(S(N)(=O)=O)c1 [Example 136, 3-({4-[(6,7-difluoro-1H-indazol-3-yl)(methyl)amino]-2-pyrimidinyl}amino)-5-methylbenzene sulfonamide]",greater than or equal to 6.0
9,"Cc1cc(Nc2nccc(N(C)c3n[nH]c4c(F)cccc34)n2)cc(N2CCCC2)c1 [Example 137, N4-(7-fluoro-1H-indazol-3-yl)-N4-methyl-N2-(3-methyl-5-(pyrrolidin-1-yl)phenyl) pyrimidine-2,4-diamine]",greater than or equal to 6.0
10,"Cc1cc(Nc2nccc(N(C)c3n[nH]c4c(F)cccc34)n2)cc(N2CCOCC2)c1 [Example 138, N4-(7-fluoro-1H-indazol-3-yl)-N4-methyl-N2-(3-methyl-5-morpholinophenyl) pyrimidine-2,4-diamine]",greater than or equal to 6.0
11,"COc1cc(Nc2nccc(N(C)c3n[nH]c4c(F)c(C)ccc34)n2)cc(S(C)(=O)=O)c1 [Example 139, N^4-(7-fluoro-6-methyl-1H-indazol-3-yl)-N^4-methyl-N^2-[3-(methyloxy)-5-(methylsulfonyl)phenyl]-2,4-pyrimidinediamine]",greater than or equal to 6.0
12,"COc1cc(Nc2nccc(N(C)c3n[nH]c4cc(C)c(F)cc34)n2)cc(S(C)(=O)=O)c1 [Example 140, N^4-(5-fluoro-6-methyl-1H-indazol-3-yl)-N^4-methyl-N^2-[3-(methyloxy)-5-(methylsulfonyl)phenyl]-2,4-pyrimidinediamine]",greater than or equal to 6.0
13,"CN(c1ccnc(Nc2ccc3c(c2)S(=O)(=O)C=C3)n1)c1n[nH]c2c(F)c(F)ccc12 [Example 141, N4-(6,7-difluoro-1H-indazol-3-yl)-N2-(1,1-dioxido-1-benzothien-6-yl)-N4-methyl-2,4-pyrimidinediamine]",greater than or equal to 6.0
14,"COc1cc(Nc2nccc(N(C)c3n[nH]c4ccc(C)cc34)n2)cc(S(C)(=O)=O)c1 [Example 142, N4-methyl-N4-(5-methyl-1H-indazol-3-yl)-N2-[3-(methyloxy)-5-(methylsulfonyl)phenyl]-2,4-pyrimidinediamine]",greater than or equal to 6.0
15,"Cc1cc(Nc2nccc(N(C)c3n[nH]c4ccc(C)cc34)n2)cc(S(C)(=O)=O)c1 [Example 143, N4-methyl-N4-(5-methyl-1H-indazol-3-yl)-N2-[3-methyl-5-(methylsulfonyl)phenyl]-2,4-pyrimidinediamine]",greater than or equal to 6.0

# Reference: patent publication US20130023532A1, “INDAZOLYL-PYRIMIDINES AS KINASE INHIBITORS” (priority 2010, published 2013)
